Experimental data: PubChem BioAssay AID1794845 (National Center for Advancing Translational Sciences (NCATS), 2023)
Out of some 6,900 compounds screened, fewer than 10 were called active. Calls come from the whole dose curve; as a rule, active = well fitted curve in the direction sought with a large enough effect; inconclusive = small, poorly fitted or top-dose-only effect, or another doubt; inactive = no such curve, though single readings can be large or run the other way. The list shows a part of the results.

By UniProt entry, the sequences of proteins in these tests, tags left out. Where a name states a change or a piece, a line headed by the entry shows the natural chain unless it says otherwise.
UniProt C7C422: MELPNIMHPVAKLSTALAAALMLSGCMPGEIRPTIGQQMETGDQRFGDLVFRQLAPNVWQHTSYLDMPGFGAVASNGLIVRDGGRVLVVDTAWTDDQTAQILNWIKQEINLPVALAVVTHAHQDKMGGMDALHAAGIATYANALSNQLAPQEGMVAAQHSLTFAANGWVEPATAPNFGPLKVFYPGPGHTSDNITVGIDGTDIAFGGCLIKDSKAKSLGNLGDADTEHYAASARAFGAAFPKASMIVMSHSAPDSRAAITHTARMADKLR

Molecular target: Metallo-beta-lactamase type 2 (Klebsiella pneumoniae) (UniProt C7C422)
Assay: qHTS to identify inhibitors of the New Delhi Metallo-beta-lactamase (NDM): primary screen against the NCATS Gemini Collection; note: % of control where 0% means no effect
Conditions: NDM-1 enzyme, meropenem hydrolysis, absorbance 300 nm; at 38.4 µM (top of the series) unless noted
Method in brief: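 Meropenem hydrolysis (50 uM final) by 2 nM NDM-1 read as 300 nm absorbance after 30 min, following >30 min compound–enzyme preincubation in HEPES pH 7.0 with 1 uM ZnSO4 and 0.01% Tween20.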

Activity % (negative = inhibition), inactive:
CC1(C)[C@H]2CC[C@@H](CNC(=O)c3cncc(Br)c3)[C@@H]1C2 -5.51%
CCCn1ncc(CN2CCC(Cc3cccc(C(F)(F)F)c3)(C(=O)OCC)CC2)c1C -4.63%
Cc1noc(C)c1C(=O)N1CCC2(CC1)CN(C(=O)Cc1cccc(Cl)c1)CCO2 6.19%
CNC(=O)[C@@H](C1CC1)N1CCC[C@H]1C(=O)N1CCC(C)CC1 79.2% [at 57.5 µM]
COCCN(C)Cc1cn(Cc2ccccc2)nc1-c1ccc2c(c1)OCO2 20.6%
C=CCNC(=O)N[C@H]1CO[C@H]2[C@@H]1OC[C@@H]2Nc1nccc(-c2cccc(F)c2)n1 2.05% [at 57.5 µM]
Cc1nn2c(c1-c1ccnn1C(C)C)N(Cc1ccc3c(c1)CCO3)CCC2 -4.9% [at 57.5 µM]
Cn1cc(CN2CCN3C(=O)N(C4CCCCC4)C[C@H]3C2)cn1 49.6% [at 57.5 µM]
Cc1cc(-c2nn(-c3ccccc3F)cc2CN(C)C(C)c2ccon2)c(C)s1 (stereo not drawn) 4.52%
CNc1cc(C2CC(Nc3nc(N)nc(C)c3Cl)C2)nc(COC)n1 (stereo not drawn) 10.4%
CCOC(=O)C1c2c(OC)ccc3c2C(=CC(C)(C)CO3)CN1C(=O)C1CC1 (stereo not drawn) 2.76%
O=C(c1ccc(C2CCCNC2)cc1)N1CCC(Oc2cccc(F)c2)CC1 (stereo not drawn) -10%
C#CCNC(=O)C[C@@H]1c2nc(NC(=O)OCC=C)sc2C[C@@H]2[C@](C)(CO)[C@H](O)CC[C@]21C 17.3%
O=C(C1CCCN1Cc1ccc(-c2cncnc2)cc1)N1CCOCC1 (stereo not drawn) 4.93%
CCOc1ccccc1NC(=O)Nc1cccc(-c2ccc(N3CCCC3)nn2)c1 17.9%
COCC(=O)NC[C@H]1CCN(Cc2scnc2C)C[C@H]1N(C)C 4.56%
Cc1nc2c(c(-c3ccc(O)cc3)n1)CN(C(=O)c1ccccc1C)CCC2 4.15%
N[C@H]1CO[C@H]2[C@@H]1OC[C@@H]2n1cc(-c2ccccn2)nn1 -3.7% [at 77.1 µM]
Cc1cccc(C(C)(C)C)c1NC(=O)N1CCN2C(=O)CNC(=O)C2C1 (stereo not drawn) 0.554%
CN1CCN(c2ccc(-c3cc4c(ccn4C)c(C(=O)NCCC(N)=O)n3)cc2)CC1 5.15% [at 57.5 µM]
CCC(C)NC(=O)C1COC2(CCC(C)CC2)N1C(=O)c1cccc(C)c1 (stereo not drawn) -11.6%
O=c1[nH]c(C2CCCN([S+](=O)([O-])c3cccc(C(F)(F)F)c3)C2)nn1-c1ccccn1 (stereo not drawn) 4.37%
O=C(CCC1CCCN(Cc2cc3ccccc3s2)C1)Nc1ccccc1F (stereo not drawn) 4.23%
CC(C)NC(=O)N1CCCC1c1noc(CCC(=O)NCC2CC2)n1 (stereo not drawn) -1.43%
N#Cc1ccc(CN2CC[C@H](c3nnc(Cc4ccccc4)o3)C2)cc1 -0.173% [at 57.5 µM]
CC(NC(=O)CNC(=O)c1cccc(-c2ccc(C(F)(F)F)cc2)c1)c1ccc(F)cc1 (stereo not drawn) 0.817%
COc1nccnc1NC1CCN(C(=O)Cc2c(C)noc2C)CC1 11.3%
Cc1cc(-c2nc3ccncc3[nH]2)c(C)[nH]1 9.64% [at 77.1 µM]
C[C@@H]1CN(C(=O)c2cnn(C)c2)CC[C@@]1(O)C1CCOCC1 10.5%
COc1ccc(C(=O)N2CC[C@H](c3nc4ccccc4n3C)C2)cc1OC 1.72% [at 57.5 µM]
COc1cccc(-c2ccc(CN3CCCC(N[S+](=O)([O-])c4c(C)noc4C)C3)cc2)c1 (stereo not drawn) 3.42%
COc1cccc2c1OCC(C(=O)N1CCC(c3noc(C)n3)CC1)C2 (stereo not drawn) -5.57%
CC(C)NC(=O)C[C@@H]1C[C@H]2O[C@H](CNCc3ccccc3C(F)(F)F)[C@@H](O)[C@H]2O1 -2.63% [at 57.5 µM]
C[C@]1(O)CCN(C(=O)c2ccc3c(c2)OCC(=O)N3)C[C@@H]1O 8.18%
Cc1cc(-c2cc3c(cn2)N(C)CCN(C)C3)ccn1 9.26% [at 77.1 µM]
Cc1ccc(C(=O)N(CC2CCN(Cc3ccccc3F)CC2)CC2CCCO2)s1 (stereo not drawn) 0.978%
Cc1cn2nc(C(=O)N3CCC(NC(=O)COc4ccccc4)CC3)cc2c(=O)[nH]1 32%
CC1=C[C@@H](CNC(=O)CCC(=O)O)[C@H](C(C)C)C[C@H]1Cc1nc2ccncc2[nH]1 1.27% [at 57.5 µM]
CSc1ccc(CNC(=O)C2(c3ccc(NS(C)(=O)=O)cc3)CCCCC2)cc1 1.83%
CC(C)(C)c1coc([C@@H]2COCCN2C2CCC2)n1 2.23% [at 77.1 µM]
CN(CC1CCOC1)C(=O)c1ccco1 (stereo not drawn) 1.45%
O=C(NCCc1nc2ccccc2s1)[C@H]1CNC[C@@H](C(=O)N2CCOCC2)C1 3.68%
O=C(Cc1cccc(Cl)c1)N1CCC2(CN[S+](=O)([O-])c3cccnc3O2)C1 (stereo not drawn) 0.492%
CC1=Nc2cc(C(=O)NCCCN(C)C)ccc2Sc2ccc(F)cc21 32.1%
CCn1c(CO)nnc1C1CC(NC(=O)CCc2c(C)nn(C)c2C)C1 (stereo not drawn) -0.901%
Cc1cc(C2CCCN2C(=O)c2ccnn2C)on1 (stereo not drawn) 0.243%
CCC1COCCN1C(=O)c1coc(COc2ccc3c(c2)OCO3)n1 (stereo not drawn) 2.74%
O=C1NC2(CCCN(C(=O)Cc3ccccc3)C2)COc2ccccc21 (stereo not drawn) 12.9%
O=[S+]([O-])(CCC(F)(F)F)N1CCN(Cc2ccccc2-c2cccnc2)CC1 -7.3%
COc1cccc(-c2nc3cnccn3c2NCCC(=O)N2CCN(C(C)C)CC2)c1 1.46%
O=S(=O)(N[C@H]1CO[C@H]2[C@@H]1OC[C@@H]2n1cc(CC2CCCCC2)nn1)c1cccs1 4.48%
Cc1ccc([S+](=O)([O-])N2CCCC2C(=O)N2CCC(c3nc4ccncc4[nH]3)CC2)cc1 (stereo not drawn) -0.985%
CN(CC1CCCCO1)C(=O)c1coc(COc2ccc3c(c2)OCO3)n1 (stereo not drawn) -0.312%
O=C1NCCN2CC3(CCN(C(=O)C4(c5ccccc5)CC4)CC3)CC12 (stereo not drawn) 17.4%
CCOCCCNC(=O)CCc1nc(C2CCCN2C(=O)c2ccccc2)no1 (stereo not drawn) -1.05%
O=S(=O)(NCC1CCOCC1)c1cccc(F)c1 0.087%
Cc1noc(C)c1S(=O)(=O)N1CCCC(Cc2nncn2C(C)C)C1 (stereo not drawn) -1.61%
C=CCn1c(CN2CCC3(CC(=O)NC3=O)C2)nc2ccccc21 (stereo not drawn) 1.69%
Cc1ncoc1C(=O)N1CCC[C@H](n2c(=O)n(C)c3cccnc32)C1 8.16%
Cc1cnc(C2CCOCC2)n1C1CCNCC1 -11.8%
O=c1cc2c(nn1Cc1cccc(Br)c1)CCCCC2 -1.73%
COCCn1c(C)cnc1CCNC(=O)Cn1nc(C(F)(F)F)cc1C 5.86%
CC(C)N1C(=O)[C@@H]2[C@@H](CCN2C(=O)CCCC(=O)O)N(Cc2cccc(F)c2)C1=O 1.95% [at 57.5 µM]
CN(CCC1CCOCC1)Cc1ccccc1OCC(O)CN1CCSCC1 (stereo not drawn) -0.827%
Cc1oc2ccn(C)c(=O)c2c1C(=O)NCc1cc(F)ccc1F 6.63%
O=C(N[C@@H]1CCN(C(=O)CCCn2cccn2)C[C@H]1O)c1ccccn1 -0.273%
CN1CCCN(S(=O)(=O)c2cn(C)cn2)c2ccccc21 12.5%
Cn1cnc(S(=O)(=O)N2c3ccccc3CC2c2noc(C3CCOCC3)n2)c1 (stereo not drawn) -16.3%
CCC(=O)N1CCC(CC(=O)N2CCOCC2)C1 (stereo not drawn) 13.6%
CC(C)NC(=O)NC1CC2(CCN(C(=O)Cc3ccc(O)cc3)CC2)c2ccccc21 (stereo not drawn) 2.61%
COc1ccccc1C(=O)N1CCCC(CN2CCC(C)CC2)CC1 (stereo not drawn) 6.6%
Cc1[nH]cnc1-c1nccn1CC(CO)Cc1cccs1 (stereo not drawn) 37.4%
O=C([C@@H]1C[C@@H](c2ccc(F)cc2)N([S+](=O)([O-])c2cccnc2)C1)N1CCOCC1 0.401% [at 57.5 µM]
CS(=O)(=O)Nc1ccc(OCC(=O)N2CCN(c3ccc(F)cc3)CC2)nc1 0.186%
Cn1cc(CN2CCOc3cc([S+](=O)([O-])Nc4ccccc4)ccc3C2)cn1 16.2% [at 57.5 µM]
CCn1ncc(NC(=O)Cn2ncc3cc(-c4ccccc4F)ccc32)n1 5.65%
CCCNC(=O)N1CC[C@@H]2[C@H]1C(=O)N(c1cccc(F)c1)C(=O)N2Cc1cccs1 5.06% [at 57.5 µM]
COC(=O)[C@@H](C)NC(=O)[C@H]1CN(C(=O)c2cccnc2)CCN1S(=O)(=O)c1ccccc1 -0.332%
CC(=O)N1CCC(N[C@H]2C[C@@H](Cc3cc(CN(C)C)on3)C2(C)C)CC1 -1.28% [at 57.5 µM]
Cc1cccc(-c2noc([C@@H]3Cc4nc[nH]c4CN3C(=O)COCC(=O)O)n2)c1 30.1% [at 57.5 µM]
CCN(Cc1nc(C)no1)C(=O)c1cc(COc2cccc(F)c2)[nH]n1 0.559%
COCCn1c(C)cnc1CCNC(=O)c1cc(C)nn1C 45%
COc1cccc(-c2cccc(CN3CCCC3C(=O)N3CCCCC3)c2)c1 (stereo not drawn) 0.421%

21 neighbouring compounds already listed, quoted:
Activity % (negative = inhibition), inactive:
CC1=Nc2cc(C(=O)NCCCN(C)C)ccc2Sc2ccc(F)cc21 32.1%
CCn1c(CO)nnc1C1CC(NC(=O)CCc2c(C)nn(C)c2C)C1 (stereo not drawn) -0.901%
Cc1cc(C2CCCN2C(=O)c2ccnn2C)on1 (stereo not drawn) 0.243%
CCC1COCCN1C(=O)c1coc(COc2ccc3c(c2)OCO3)n1 (stereo not drawn) 2.74%
O=C1NC2(CCCN(C(=O)Cc3ccccc3)C2)COc2ccccc21 (stereo not drawn) 12.9%
O=[S+]([O-])(CCC(F)(F)F)N1CCN(Cc2ccccc2-c2cccnc2)CC1 -7.3%
COc1cccc(-c2nc3cnccn3c2NCCC(=O)N2CCN(C(C)C)CC2)c1 1.46%
O=S(=O)(N[C@H]1CO[C@H]2[C@@H]1OC[C@@H]2n1cc(CC2CCCCC2)nn1)c1cccs1 4.48%
Cc1ccc([S+](=O)([O-])N2CCCC2C(=O)N2CCC(c3nc4ccncc4[nH]3)CC2)cc1 (stereo not drawn) -0.985%
CN(CC1CCCCO1)C(=O)c1coc(COc2ccc3c(c2)OCO3)n1 (stereo not drawn) -0.312%
O=C1NCCN2CC3(CCN(C(=O)C4(c5ccccc5)CC4)CC3)CC12 (stereo not drawn) 17.4%
CCOCCCNC(=O)CCc1nc(C2CCCN2C(=O)c2ccccc2)no1 (stereo not drawn) -1.05%
O=S(=O)(NCC1CCOCC1)c1cccc(F)c1 0.087%
Cc1noc(C)c1S(=O)(=O)N1CCCC(Cc2nncn2C(C)C)C1 (stereo not drawn) -1.61%
C=CCn1c(CN2CCC3(CC(=O)NC3=O)C2)nc2ccccc21 (stereo not drawn) 1.69%
Cc1ncoc1C(=O)N1CCC[C@H](n2c(=O)n(C)c3cccnc32)C1 8.16%
Cc1cnc(C2CCOCC2)n1C1CCNCC1 -11.8%
O=c1cc2c(nn1Cc1cccc(Br)c1)CCCCC2 -1.73%
COCCn1c(C)cnc1CCNC(=O)Cn1nc(C(F)(F)F)cc1C 5.86%
CC(C)N1C(=O)[C@@H]2[C@@H](CCN2C(=O)CCCC(=O)O)N(Cc2cccc(F)c2)C1=O 1.95% [at 57.5 µM]
CN(CCC1CCOCC1)Cc1ccccc1OCC(O)CN1CCSCC1 (stereo not drawn) -0.827%
